The data set is described as follows: Fluorescence spectroscopy of labelled peptides with cardiolipin. It is filed as binding. The note with it: for λmax without CL / λmax with CL: excitation 350 nm. The source says:
The peptides 2′,6′-Dmt-D-Arg-[…] (SS-19) and 2′,6′-Dmt-D-Arg-Phe-Lys-Ald-NH2 (SS-37) cationic peptides carry net positive charge at neutral pH. They are expected to associate with anionic phospholipid cardiolipin based on electrostatic interaction. The interaction of small peptides with lipid membranes can been studied using fluorescence spectroscopy (Surewicz and Epand, 1984). […] Polarity-sensitive fluorescent probes were incorporated into the peptides and fluorescence spectroscopy was used to determine if SS-19, SS-37 and SS-36 interact with CL.
The peptide 2′,6′-Dmt-D-Arg-Phe-(atn)Dap-NH2 (SS-19) contains anthraniloyl incorporated into diaminopropionic acid. Anthraniloyl derivatives fluoresce in the 410-420 nm range when excited at 320-330 nm (Hiratsuka T, 1983). The quantum yield of anthraniloyl derivatives is strongly dependent on the local environment, and can increase 5-fold going from water to 80% ethanol, together with a blue shift in the emission maxima (λ max) of <10 nm (Hiratsuka T, 1983). Fluorescence emission spectrum of SS-19 (1 μM) alone, and in the presence of increasing concentrations of CL (5 to 50 μg/ml), was monitored following excitation at 320 nm using Hitachi F-4500 fluorescence spectrophotometer.
The peptide 2′,6′-Dmt-D-Arg-Phe-Lys-Ald-NH2 (SS-37) contains an additional amino acid, aladan (Ald), which has been reported to be particularly sensitive to the polarity of its environment and it has been used to probe the electrostatic character of proteins (Cohen et al., 2002). When excited at 350 nm, λmax shifts from 542 nm in water to 409 nm in heptane, accompanied by a significant increase in quantal yield (Cohen et al., 2001). Fluorescence emission spectrum of SS-37 (1 μM) alone, and in the presence of increasing concentrations of CL, was monitored following excitation at 350 nm. Addition of CL (5 to 50 μg/ml) led to a 3-fold increase in quantal yield of SS-37 as well as a clear blue shift in λ max, from 525 nm without CL to 500 nm with 50 μg/ml CL (FIG. 11B).
The peptide 2′,6′-Dmt-D-Arg-Ald-Lys-NH2 (SS-36) contains Ald in place Phe^3 in SS-02. Fluorescence emission spectrum of SS-36 (1 μM) alone, and in the presence of increasing concentrations of CL, was monitored following excitation at 350 nm. SS-36 was the most sensitive to the addition of CL, with dramatic increase in quantal yield and blue shift observed with much lower added amounts of CL (1.25 to 5 μg/ml). The λmax shifted from 525 nm without CL to 500 nm with as little as 1.25 μg/ml CL, and quantal yield increased by more than 100-fold with the addition of 5 μg/ml of CL (FIG. 11C). […] Accordingly, aromatic-cationic peptides of the present disclosure are useful for the prevention or treatment of diseases or disorders characterized by dysregulation of cardiolipin.
Changes in the emission intensity of the [atn]SS-02 and the [ald]SS-02 were measured using a Hitachi F-4500 fluorescence spectrophotometer. The different solvents used to dissolve the various phospholipids (chloroform, methanol and ethanol) had negligible effect on the fluorescence spectrum of [atn]SS-02 and [ald]SS-02. All experiments were done in low ionic solution (deionized water) to optimize electrostatic interactions of peptides with phospholipids.
Increasing concentrations of cardiolipin (5, 10, 25, and 50 μg/mL) were added to 1 μM [atn]SS-02, and the emission intensity between 350 nm and 500 nm was measured.

Regarding 2′,6′-Dmt-D-Arg-Ald-Lys-NH2 [SS-36], the “λmax of aladan with cardiolipin” value (1 μM peptide, cardiolipin 1.25, 2.5, 5 μg/mL, λex 360 nm (Example 21)) is reported as 510 nm. The “λmax without CL” value (1 μM peptide) was 525 nm. Also, the “λmax of aladan before cardiolipin” value (1 μM peptide, λex 360 nm (Example 21)) amounted to 540 nm. The “λmax with CL” value (1.25 μg/ml CL) is 500 nm.

Take 2′,6′-Dmt-D-Arg-Phe-Lys-Ald-NH2 [SS-37]: the “λmax without CL” value (1 μM peptide) worked out at 525 nm. Besides, under “50 μg/ml CL”, the “λmax with CL” value stood at 500 nm.

(Values after US10808008B2, “Aromatic-cationic peptides and uses of same” (Cornell University, priority 2012, dated 2020).)
